Patent US6573362
Results are given in words; binding and its absence hold for the method and conditions named. Some binding calls cover weakened binding; strength is not graded here.

Protein sequences, listed by entry. Tags and fused reporters are not part of them. Lines headed by an entry give the natural chain unless they say otherwise; changes in a name come on top.
UniProt P0A7C2: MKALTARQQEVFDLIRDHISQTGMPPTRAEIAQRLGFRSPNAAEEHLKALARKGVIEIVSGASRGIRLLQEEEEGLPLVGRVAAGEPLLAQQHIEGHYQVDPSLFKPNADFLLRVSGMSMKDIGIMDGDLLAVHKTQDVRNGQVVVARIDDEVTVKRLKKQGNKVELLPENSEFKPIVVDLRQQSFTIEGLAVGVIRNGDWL
UniProt Q2KI41: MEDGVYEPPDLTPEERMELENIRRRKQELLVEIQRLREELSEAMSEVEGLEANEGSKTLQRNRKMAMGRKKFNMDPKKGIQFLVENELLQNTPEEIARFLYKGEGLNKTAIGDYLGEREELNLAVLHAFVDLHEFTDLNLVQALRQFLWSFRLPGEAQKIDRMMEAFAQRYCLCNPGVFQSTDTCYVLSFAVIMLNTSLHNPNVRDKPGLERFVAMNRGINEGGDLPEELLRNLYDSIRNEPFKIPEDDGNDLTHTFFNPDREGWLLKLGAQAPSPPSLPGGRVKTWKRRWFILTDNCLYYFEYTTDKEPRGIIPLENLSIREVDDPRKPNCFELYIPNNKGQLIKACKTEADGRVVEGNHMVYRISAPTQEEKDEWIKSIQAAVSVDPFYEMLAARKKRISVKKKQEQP

How the values were obtained:
[1] = molecular target: lex-CD18cyt (LexA fusion of the cytoplasmic domain of CD18, the beta2 integrin subunit; construct lex 202-cd18) (UniProt P0A7C2); experiment: yeast two-hybrid, X-GAL colour
[2] = molecular target: lex-CD18cyt (LexA fusion of the cytoplasmic domain of CD18, the beta2 integrin subunit; construct lex 202-cd18) (UniProt P0A7C2); experiment: yeast two-hybrid, X-GAL colour (blue indicates an interaction)
[3] = molecular target: lex-CD18cyt (LexA fusion of the cytoplasmic domain of CD18, the beta2 integrin subunit; construct lex 202-cd18) (UniProt P0A7C2); experiment: yeast two-hybrid library screen with the lex202-cd18 bait, X-GAL indicator plates

Measured: binding

product of cDNA cts18.1 (cytohesin-2) expressed from pJG4-5 (from UniProt Q2KI41 133-410)
binds: all assays above
